# The list shows a part of the results.
# Target: T1, OsSMF1 (Oryza sativa, UniProt Q6ZLB0 1-436)
# T1 sequence: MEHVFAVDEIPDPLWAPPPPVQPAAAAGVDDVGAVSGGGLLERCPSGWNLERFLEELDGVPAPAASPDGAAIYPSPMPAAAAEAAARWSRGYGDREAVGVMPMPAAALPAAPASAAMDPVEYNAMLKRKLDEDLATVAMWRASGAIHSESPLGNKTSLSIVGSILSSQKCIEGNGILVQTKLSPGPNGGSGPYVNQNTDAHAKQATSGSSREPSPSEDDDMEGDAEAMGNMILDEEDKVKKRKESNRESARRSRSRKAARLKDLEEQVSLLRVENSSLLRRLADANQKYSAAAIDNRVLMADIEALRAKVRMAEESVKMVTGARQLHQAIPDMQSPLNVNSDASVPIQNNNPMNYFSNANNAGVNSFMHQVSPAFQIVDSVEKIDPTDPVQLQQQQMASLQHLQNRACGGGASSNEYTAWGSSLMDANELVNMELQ
# Test: protein-binding microarray (RPBM); PBS, 2% BSA, 51.3 ng/ul salmon testes DNA, 50 uM zinc acetate, 200 nM TF, 25 C, 1 h; high values mean tight binding
# Conditions: protein: recombinant; tags: N-terminal polyhistidine and DsRed monomer fusion (pET32a); chain copies: 2; label: CyDye5-dUTP incorporated in the synthesized complementary strand; 3' TTTTT single-stranded linker to array surface; dsDNA, one strand shown
# In short: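 In PBS with 2% BSA, salmon testes DNA and 50 µM zinc acetate, 200 nM protein was incubated on a custom Agilent array at 25 °C for 1 h and then washed off. The array had been made double-stranded by primer extension with Cy5-dUTP and blocked with 2% BSA. The proteins were transcription factors fused N-terminally to polyhistidine and DsRed, expressed in E. coli BL21-CodonPlus and purified on Ni–NTA. The binding signal is per-feature fluorescence intensity (arbitrary units) from an Axon 4000B scanner.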
row,Sequence,binding signal
1,GAACATCATATCACCTATTATGTTTACTGTACATCCACATCGGAGTCACCTAGTGCAG,3260 fluorescence intensity (a.u.)
2,AACCTCTGCACCTCCTCCAACCAAACTAGCAGCTCCTGATCGGAGTCACCTAGTGCAG,3290 fluorescence intensity (a.u.)
3,ATAAATTTAAGTGCATTTTGGTTGACGTACTGACGTGTTTCGGAGTCACCTAGTGCAG,7800 fluorescence intensity (a.u.)
4,TGCCGTTAGTTGGGGTAAATTAGAGATGACAATGGGCCCCCGGAGTCACCTAGTGCAG,3420 fluorescence intensity (a.u.)
5,AATGGATCTAGACTATATCTATCTAGATTCATTAGTATCACGGAGTCACCTAGTGCAG,45400 fluorescence intensity (a.u.)
6,CTCGTCTCCCCACTGGCCGCCGCCACGTCTCGTCTCCTCCCGGAGTCACCTAGTGCAG,4270 fluorescence intensity (a.u.)
7,CTAGTCCATCGATCGAGGTTACACGCATGACGTACATAATCGGAGTCACCTAGTGCAG,3510 fluorescence intensity (a.u.)
8,CCTACGGCATCAACTAGCCTCGCTCCCATGTCATCTGCTGCGGAGTCACCTAGTGCAG,5080 fluorescence intensity (a.u.)
9,GGCGAGCTGTGGCGGTGGCCGGATGGCTGCTGTGGTGGCACGGAGTCACCTAGTGCAG,3350 fluorescence intensity (a.u.)
10,AAAGATGGATCGGACCGCTTGGCGCGCCCGCCTAACGTGGCGGAGTCACCTAGTGCAG,3360 fluorescence intensity (a.u.)
11,CGTCAACTCCGTGCCGGAGAACAACACCGTGCGCGTCATCCGGAGTCACCTAGTGCAG,5170 fluorescence intensity (a.u.)
12,TGCGAATTAAGCCGCACTTGACCACGACGCCACGACCACTCGGAGTCACCTAGTGCAG,3560 fluorescence intensity (a.u.)
13,AAGCCGCCTCCGCTCCTCCGCGTGCGCCGCCGCCGACTCGCGGAGTCACCTAGTGCAG,3190 fluorescence intensity (a.u.)
14,GATCTAATCCATGGCCAGATAACCGATGTCATCACCAAATCGGAGTCACCTAGTGCAG,3920 fluorescence intensity (a.u.)
15,TCTCACCGCCCGGCAAGCACGAACACGATGACATCGGATCCGGAGTCACCTAGTGCAG,4590 fluorescence intensity (a.u.)
16,ACCTAAACGAGCCAACACGCACGCTCATCGCATCTTTGCGCGGAGTCACCTAGTGCAG,3810 fluorescence intensity (a.u.)
17,CGTCATACTGCTCGATCAGGTGGCCGGCTTACGTCATCGTCGGAGTCACCTAGTGCAG,6110 fluorescence intensity (a.u.)
18,GACGGACGCGTCGATGCGCGTGGCAGTAGCTGCGTGCGGGCGGAGTCACCTAGTGCAG,6090 fluorescence intensity (a.u.)
19,GACATGACGAAACAACATTGTCACGTCACTTGTGTTTGGTCGGAGTCACCTAGTGCAG,8040 fluorescence intensity (a.u.)
20,CCTCTGATGCACATGCTGACATCTGTTGCTTCTAGACATGCGGAGTCACCTAGTGCAG,4530 fluorescence intensity (a.u.)
21,TTGGTGTTAAATTTATAGTTATGTTATACACTGTCTTGAACGGAGTCACCTAGTGCAG,23800 fluorescence intensity (a.u.)
22,CTCATGATCTCCACCACCCGCGCCACGCCGCCCGCCTCCTCGGAGTCACCTAGTGCAG,3290 fluorescence intensity (a.u.)
23,CGGGACACACGTCTTACACATCAGCATTTGCTAAGCATACCGGAGTCACCTAGTGCAG,5180 fluorescence intensity (a.u.)
24,TTGTGATGTCCATGTCACATGCAGTCCATTAAGGCCCTTGCGGAGTCACCTAGTGCAG,5190 fluorescence intensity (a.u.)
25,GAAGGCGACCCGTGCGCACGACGCTCGCCGCCGCTTCCTGCGGAGTCACCTAGTGCAG,3960 fluorescence intensity (a.u.)
26,TGATGGTGGTGGTGGTGGTCGTCGTCGTCGGCTGTTTTGCCGGAGTCACCTAGTGCAG,4070 fluorescence intensity (a.u.)
27,TTACATGAAATTTACATACAAGTTACACTATTGTTACATGCGGAGTCACCTAGTGCAG,22600 fluorescence intensity (a.u.)

# Reformatted: entries from further up
row	Sequence	binding signal
2	AACCTCTGCACCTCCTCCAACCAAACTAGCAGCTCCTGATCGGAGTCACCTAGTGCAG	3290 fluorescence intensity (a.u.)
3	ATAAATTTAAGTGCATTTTGGTTGACGTACTGACGTGTTTCGGAGTCACCTAGTGCAG	7800 fluorescence intensity (a.u.)

# Additional records:

row,Sequence,binding signal
1,GTCGTCCGTCAGCACTGCATCCTCCCTCTCTTTCGCTAGCCGGAGTCACCTAGTGCAG,3960 fluorescence intensity (a.u.)
2,GTTGGCTCCCTCCACTACACTGTACTGACTTCGCCCATAGCGGAGTCACCTAGTGCAG,4000 fluorescence intensity (a.u.)
3,ATAAACCGCGCGCCTCTCGAATCCGCACCTCGTCACGCACCGGAGTCACCTAGTGCAG,3490 fluorescence intensity (a.u.)
4,CCACCTATCCACGTCAACTCCCTCCGTCCCTCGCCCGCGCCGGAGTCACCTAGTGCAG,8900 fluorescence intensity (a.u.)
5,CACTCCAAGAAGGAGATAGAGTAGTCCACCTCACCAGTTGCGGAGTCACCTAGTGCAG,5810 fluorescence intensity (a.u.)
6,CATAAACTCGGTGTTGCATATTCTTAGGCCCGGTCTTGTGCGGAGTCACCTAGTGCAG,3310 fluorescence intensity (a.u.)
7,AGCACCGCATTGGTGATGACCTTAGCCTTGTACACTCCACCGGAGTCACCTAGTGCAG,3800 fluorescence intensity (a.u.)
8,TTGGACGAGCTAGTAGTATTTATGAGAGCGCGTCAGCTGTCGGAGTCACCTAGTGCAG,3160 fluorescence intensity (a.u.)
9,TGGCTGTAGATCGGACCTGACTCAGCATGGCATGGCTGTACGGAGTCACCTAGTGCAG,14000 fluorescence intensity (a.u.)
10,CTTGAAAACAGACATTCTACACCCCGAACTATTGAAACCGCGGAGTCACCTAGTGCAG,20300 fluorescence intensity (a.u.)
11,ATATGAGGAAAGGAGATCGGAAGAATCGAGAAAGCCAGGGCGGAGTCACCTAGTGCAG,27100 fluorescence intensity (a.u.)
12,AGTTCAACTATTCAAGCATGACTAGGAGTCTTTCTGGTCCCGGAGTCACCTAGTGCAG,4120 fluorescence intensity (a.u.)
13,AAGCGGCTGCCACGACTCATTGTGTAGTGTCTGCATGTGTCGGAGTCACCTAGTGCAG,3280 fluorescence intensity (a.u.)
14,CAGTTCCCAGCTGGACCTCCGACCTCCTACCTCCTCACCTCGGAGTCACCTAGTGCAG,3340 fluorescence intensity (a.u.)
15,AACCAACTATTCCACCTAACACTCCACACCTCTTCCTAGACGGAGTCACCTAGTGCAG,3180 fluorescence intensity (a.u.)
16,ATAGTTAGCTAGTCCACATCACAGGCAAAATATGCGCTACCGGAGTCACCTAGTGCAG,4120 fluorescence intensity (a.u.)
17,CAGAGTCGCCGTTGGTGGTTTGGTAGCATGACTCTGCCATCGGAGTCACCTAGTGCAG,3890 fluorescence intensity (a.u.)
18,ATCCGATATTACCTGTAATCTTTTCTATGCATACATCATACGGAGTCACCTAGTGCAG,3400 fluorescence intensity (a.u.)
19,GTAAATTTCATAAAATCCCACGTATTATGATTCAAATTGCCGGAGTCACCTAGTGCAG,5110 fluorescence intensity (a.u.)
20,CACACCCTTACTGTAGCTATCACTGCACAAAGCCAAAACCCGGAGTCACCTAGTGCAG,43600 fluorescence intensity (a.u.)
21,AAGGGTACACTTTATTTTGTTGGGACAAACTTTGACCAATCGGAGTCACCTAGTGCAG,8920 fluorescence intensity (a.u.)
22,GGTTCTCTCCACACCAGCACAGCAGCGAGTACAGCCAGGCCGGAGTCACCTAGTGCAG,3640 fluorescence intensity (a.u.)
23,CGGCGATCCGTACGTCGCCGGCGGCGATCGATTTGTATATCGGAGTCACCTAGTGCAG,3160 fluorescence intensity (a.u.)
24,TGAATCTAAACATATATCATTAACATCAATATGAATATATCGGAGTCACCTAGTGCAG,3250 fluorescence intensity (a.u.)
25,ATCAGAGGATCGGCACTAAGCCATGCAAGGCAAGTGCCACCGGAGTCACCTAGTGCAG,3330 fluorescence intensity (a.u.)
26,CATCGACACCCTACAGCGTACACGTACTTGTGCTGCTCGTCGGAGTCACCTAGTGCAG,4420 fluorescence intensity (a.u.)
27,GATGATGAACAATTGTCTGAATCCGATGCTCGATTGCCATCGGAGTCACCTAGTGCAG,3590 fluorescence intensity (a.u.)

# From publication PMC7819943, “Rice protein-binding microarrays: a tool to detect cis-acting elements near promoter regions in rice”
